Source: publication PMC7280246
Results are given in words; binding and its absence hold for the method and conditions named. Binding seen in cells or lysates may run through a third protein. Some binding calls cover weakened binding; strength is not graded here. For some of these results: Sequences can lack the tags named with a protein.

Protein sequences, listed by entry. Tags and fused reporters are not part of them.
UniProt Q8C863: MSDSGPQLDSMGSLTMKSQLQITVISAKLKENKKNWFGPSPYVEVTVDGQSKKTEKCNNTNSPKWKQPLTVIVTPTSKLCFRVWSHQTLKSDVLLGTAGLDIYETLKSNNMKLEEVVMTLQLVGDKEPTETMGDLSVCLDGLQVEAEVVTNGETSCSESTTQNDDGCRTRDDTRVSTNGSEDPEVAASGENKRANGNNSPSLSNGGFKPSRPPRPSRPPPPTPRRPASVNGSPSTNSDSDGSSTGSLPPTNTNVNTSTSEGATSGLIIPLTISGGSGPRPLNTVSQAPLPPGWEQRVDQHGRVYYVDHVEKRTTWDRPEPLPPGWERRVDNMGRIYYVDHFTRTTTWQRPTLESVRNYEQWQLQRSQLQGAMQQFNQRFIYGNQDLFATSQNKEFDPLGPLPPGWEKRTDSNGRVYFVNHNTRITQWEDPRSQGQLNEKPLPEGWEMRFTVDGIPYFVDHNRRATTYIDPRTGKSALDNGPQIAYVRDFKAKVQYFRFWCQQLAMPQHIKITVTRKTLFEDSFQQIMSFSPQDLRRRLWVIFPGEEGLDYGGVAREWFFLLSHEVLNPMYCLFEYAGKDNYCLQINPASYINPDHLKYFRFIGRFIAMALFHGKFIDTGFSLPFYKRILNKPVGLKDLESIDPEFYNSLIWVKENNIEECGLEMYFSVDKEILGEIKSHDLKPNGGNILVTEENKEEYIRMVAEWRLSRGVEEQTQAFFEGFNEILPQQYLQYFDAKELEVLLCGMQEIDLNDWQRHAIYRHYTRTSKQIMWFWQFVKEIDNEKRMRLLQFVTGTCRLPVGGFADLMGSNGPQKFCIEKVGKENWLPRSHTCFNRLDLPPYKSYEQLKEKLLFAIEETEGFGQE

Tests used:
TAp73-HA = target: T1, TAp73-HA (UniProt O15350); assay: co-IP; neuronal PC12 cells transfected with TAp73-HA and Itch-Myc, with or without MG132; lysates after 48 h; IP with anti-HA or anti-Myc, blotted with anti-myc and anti-HA respectively
T1 sequence: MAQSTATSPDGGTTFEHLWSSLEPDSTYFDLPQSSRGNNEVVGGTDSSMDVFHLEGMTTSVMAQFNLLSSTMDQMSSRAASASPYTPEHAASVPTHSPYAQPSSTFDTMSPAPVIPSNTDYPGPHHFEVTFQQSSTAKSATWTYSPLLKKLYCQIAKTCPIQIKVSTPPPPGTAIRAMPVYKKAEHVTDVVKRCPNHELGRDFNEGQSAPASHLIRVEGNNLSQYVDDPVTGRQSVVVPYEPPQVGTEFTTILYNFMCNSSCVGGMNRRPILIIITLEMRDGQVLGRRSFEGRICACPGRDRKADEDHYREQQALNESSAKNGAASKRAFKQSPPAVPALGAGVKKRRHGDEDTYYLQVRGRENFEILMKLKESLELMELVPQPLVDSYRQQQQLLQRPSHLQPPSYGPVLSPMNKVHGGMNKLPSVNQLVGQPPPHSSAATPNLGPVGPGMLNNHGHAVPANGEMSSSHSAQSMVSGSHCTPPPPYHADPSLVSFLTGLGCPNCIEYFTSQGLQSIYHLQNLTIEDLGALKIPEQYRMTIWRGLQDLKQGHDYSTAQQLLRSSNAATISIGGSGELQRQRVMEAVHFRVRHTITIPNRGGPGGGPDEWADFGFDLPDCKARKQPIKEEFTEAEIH

Itch-Myc = Itch-Myc (UniProt Q8C863); assay: as above
[1] = target: Itch (endogenous, TgAD mouse cortical neurons) (mouse (endogenous in TgAD cortical neurons)) (UniProt Q8C863); assay: co-IP; neurons from TgAD animals, with or without JNK inhibition; data not shown
[2] = target: Itch-myc (adenovirus, wild type) (UniProt Q8C863); assay: co-IP; TgAD mouse neurons infected with adenovirus for Itch-myc or K393R mutant, with MG132; co-immunoprecipitation of Itch-myc and TAp73 (Supplementary Fig. S5)

Itch-Myc (from UniProt Q8C863 1-864) (enzyme)
binding (TAp73-HA): binds

B1: TAp73-HA (protein, UniProt O15350 1-636)
chain: T1 sequence
binding (Itch-Myc): binds

B2: TAp73 (endogenous, TgAD mouse cortical neurons) (protein, UniProt Q9JJP2 1-631)
chain: MAQTSSSSSSTFEHLWSSLEPDSTYFDLPQPSQGTSEASGSEESNMDVFHLQGMAQFNLLSSAMDQMGSRAAPASPYTPEHAASAPTHSPYAQPSSTFDTMSPAPVIPSNTDYPGPHHFEVTFQQSSTAKSATWTYSPLLKKLYCQIAKTCPIQIKVSTPPPPGTAIRAMPVYKKAEHVTDIVKRCPNHELGRDFNEGQSAPASHLIRVEGNNLAQYVDDPVTGRQSVVVPYEPPQVGTEFTTILYNFMCNSSCVGGMNRRPILVIITLETRDGQVLGRRSFEGRICACPGRDRKADEDHYREQQALNESTTKNGAASKRAFKQSPPAIPALGTNVKKRRHGDEDMFYMHVRGRENFEILMKVKESLELMELVPQPLVDSYRQQQQQQLLQRPSHLQPPSYGPVLSPMNKVHGGVNKLPSVNQLVGQPPPHSSAAGPNLGPMGSGMLNSHGHSMPANGEMNGGHSSQTMVSGSHCTPPPPYHADPSLVSFLTGLGCPNCIECFTSQGLQSIYHLQNLTIEDLGALKVPDQYRMTIWRGLQDLKQSHDCGQQLLRSSSNAATISIGGSGELQRQRVMEAVHFRVRHTITIPNRGGAGAVTGPDEWADFGFDLPDCKSRKQPIKEEFTETESH
binding [1]: binds | binding [2]: binds
